Data from article PMC4226561.
These are yes or no findings as the source states them, for the method shown. Some binding calls cover weakened binding; strength is not graded here. Where a sequence is shown, tags or fusion partners need not be part of it.

T1: KOR1N, N-terminal part of KOR1 with the transmembrane domain (AA 1 to 94), MbYTH fusion (Arabidopsis thaliana) (UniProt Q38890)
T1 sequence: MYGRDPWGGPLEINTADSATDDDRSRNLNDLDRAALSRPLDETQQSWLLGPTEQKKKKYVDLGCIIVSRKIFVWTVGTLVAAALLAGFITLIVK

T2: KOR1TMD, only the transmembrane domain of KOR1 (AA 70 to 94), MbYTH fusion (Arabidopsis thaliana) (UniProt Q38890)
T2 sequence: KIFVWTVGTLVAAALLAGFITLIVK

T3: KOR1C, transmembrane domain plus the C-terminal part of KOR1 (AA 70 to 621), MbYTH fusion (Arabidopsis thaliana) (UniProt Q38890)
T3 sequence: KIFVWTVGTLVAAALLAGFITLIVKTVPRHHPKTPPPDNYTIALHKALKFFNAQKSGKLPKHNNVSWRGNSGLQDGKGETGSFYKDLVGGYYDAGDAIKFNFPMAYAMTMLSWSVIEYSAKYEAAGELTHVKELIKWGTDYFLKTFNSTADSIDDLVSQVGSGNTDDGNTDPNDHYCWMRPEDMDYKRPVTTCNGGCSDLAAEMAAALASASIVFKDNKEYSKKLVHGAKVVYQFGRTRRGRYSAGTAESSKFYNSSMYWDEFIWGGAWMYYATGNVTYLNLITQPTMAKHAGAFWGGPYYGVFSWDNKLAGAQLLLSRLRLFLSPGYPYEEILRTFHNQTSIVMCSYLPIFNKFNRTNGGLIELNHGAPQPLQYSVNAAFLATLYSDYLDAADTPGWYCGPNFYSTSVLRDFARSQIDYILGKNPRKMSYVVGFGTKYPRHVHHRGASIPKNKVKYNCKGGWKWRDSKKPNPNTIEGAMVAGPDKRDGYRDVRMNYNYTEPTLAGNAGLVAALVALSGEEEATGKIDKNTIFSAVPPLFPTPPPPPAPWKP

B1: CESA1 (cellulose synthase, primary cell wall), MbYTH fusion (protein, UniProt O48946 1-1081)
chain: MEASAGLVAGSYRRNELVRIRHESDGGTKPLKNMNGQICQICGDDVGLAETGDVFVACNECAFPVCRPCYEYERKDGTQCCPQCKTRFRRHRGSPRVEGDEDEDDVDDIENEFNYAQGANKARHQRHGEEFSSSSRHESQPIPLLTHGHTVSGEIRTPDTQSVRTTSGPLGPSDRNAISSPYIDPRQPVPVRIVDPSKDLNSYGLGNVDWKERVEGWKLKQEKNMLQMTGKYHEGKGGEIEGTGSNGEELQMADDTRLPMSRVVPIPSSRLTPYRVVIILRLIILCFFLQYRTTHPVKNAYPLWLTSVICEIWFAFSWLLDQFPKWYPINRETYLDRLAIRYDRDGEPSQLVPVDVFVSTVDPLKEPPLVTANTVLSILSVDYPVDKVACYVSDDGSAMLTFESLSETAEFAKKWVPFCKKFNIEPRAPEFYFAQKIDYLKDKIQPSFVKERRAMKREYEEFKVRINALVAKAQKIPEEGWTMQDGTPWPGNNTRDHPGMIQVFLGHSGGLDTDGNELPRLIYVSREKRPGFQHHKKAGAMNALIRVSAVLTNGAYLLNVDCDHYFNNSKAIKEAMCFMMDPAIGKKCCYVQFPQRFDGIDLHDRYANRNIVFFDINMKGLDGIQGPVYVGTGCCFNRQALYGYDPVLTEEDLEPNIIVKSCCGSRKKGKSSKKYNYEKRRGINRSDSNAPLFNMEDIDEGFEGYDDERSILMSQRSVEKRFGQSPVFIAATFMEQGGIPPTTNPATLLKEAIHVISCGYEDKTEWGKEIGWIYGSVTEDILTGFKMHARGWISIYCNPPRPAFKGSAPINLSDRLNQVLRWALGSIEILLSRHCPIWYGYHGRLRLLERIAYINTIVYPITSIPLIAYCILPAFCLITDRFIIPEISNYASIWFILLFISIAVTGILELRWSGVSIEDWWRNEQFWVIGGTSAHLFAVFQGLLKVLAGIDTNFTVTSKATDEDGDFAELYIFKWTALLIPPTTVLLVNLIGIVAGVSYAVNSGYQSWGPLFGKLFFALWVIAHLYPFLKGLLGRQNRTPTIVIVWSVLLASIFSLLWVRINPFVDANPNANNFNGKGGVF
B2: CESA6 (cellulose synthase, primary cell wall), MbYTH fusion (protein, UniProt Q94JQ6 1-1084)
chain: MNTGGRLIAGSHNRNEFVLINADENARIRSVQELSGQTCQICRDEIELTVDGEPFVACNECAFPVCRPCYEYERREGNQACPQCKTRFKRLKGSPRVEGDEEEDDIDDLDNEFEYGNNGIGFDQVSEGMSISRRNSGFPQSDLDSAPPGSQIPLLTYGDEDVEISSDRHALIVPPSLGGHGNRVHPVSLSDPTVAAHPRPMVPQKDLAVYGYGSVAWKDRMEEWKRKQNEKLQVVRHEGDPDFEDGDDADFPMMDEGRQPLSRKIPIKSSKINPYRMLIVLRLVILGLFFHYRILHPVKDAYALWLISVICEIWFAVSWVLDQFPKWYPIERETYLDRLSLRYEKEGKPSGLSPVDVFVSTVDPLKEPPLITANTVLSILAVDYPVDKVACYVSDDGAAMLTFEALSETAEFARKWVPFCKKYCIEPRAPEWYFCHKMDYLKNKVHPAFVRERRAMKRDYEEFKVKINALVATAQKVPEDGWTMQDGTPWPGNSVRDHPGMIQVFLGSDGVRDVENNELPRLVYVSREKRPGFDHHKKAGAMNSLIRVSGVLSNAPYLLNVDCDHYINNSKALREAMCFMMDPQSGKKICYVQFPQRFDGIDRHDRYSNRNVVFFDINMKGLDGLQGPIYVGTGCVFRRQALYGFDAPKKKKGPRKTCNCWPKWCLLCFGSRKNRKAKTVAADKKKKNREASKQIHALENIEEGRVTKGSNVEQSTEAMQMKLEKKFGQSPVFVASARMENGGMARNASPACLLKEAIQVISCGYEDKTEWGKEIGWIYGSVTEDILTGFKMHSHGWRSVYCTPKLAAFKGSAPINLSDRLHQVLRWALGSVEIFLSRHCPIWYGYGGGLKWLERLSYINSVVYPWTSLPLIVYCSLPAICLLTGKFIVPEISNYASILFMALFSSIAITGILEMQWGKVGIDDWWRNEQFWVIGGVSAHLFALFQGLLKVLAGVDTNFTVTSKAADDGEFSDLYLFKWTSLLIPPMTLLIINVIGVIVGVSDAISNGYDSWGPLFGRLFFALWVIIHLYPFLKGLLGKQDRMPTIIVVWSILLASILTLLWVRVNPFVAKGGPILEICGLDCL
B3: CESA3 (cellulose synthase, primary cell wall), MbYTH fusion (protein, UniProt Q941L0 1-1065)
chain: MESEGETAGKPMKNIVPQTCQICSDNVGKTVDGDRFVACDICSFPVCRPCYEYERKDGNQSCPQCKTRYKRLKGSPAIPGDKDEDGLADEGTVEFNYPQKEKISERMLGWHLTRGKGEEMGEPQYDKEVSHNHLPRLTSRQDTSGEFSAASPERLSVSSTIAGGKRLPYSSDVNQSPNRRIVDPVGLGNVAWKERVDGWKMKQEKNTGPVSTQAASERGGVDIDASTDILADEALLNDEARQPLSRKVSIPSSRINPYRMVIMLRLVILCLFLHYRITNPVPNAFALWLVSVICEIWFALSWILDQFPKWFPVNRETYLDRLALRYDREGEPSQLAAVDIFVSTVDPLKEPPLVTANTVLSILAVDYPVDKVSCYVSDDGAAMLSFESLAETSEFARKWVPFCKKYSIEPRAPEWYFAAKIDYLKDKVQTSFVKDRRAMKREYEEFKIRINALVSKALKCPEEGWVMQDGTPWPGNNTRDHPGMIQVFLGQNGGLDAEGNELPRLVYVSREKRPGFQHHKKAGAMNALVRVSAVLTNGPFILNLDCDHYINNSKALREAMCFLMDPNLGKQVCYVQFPQRFDGIDKNDRYANRNTVFFDINLRGLDGIQGPVYVGTGCVFNRTALYGYEPPIKVKHKKPSLLSKLCGGSRKKNSKAKKESDKKKSGRHTDSTVPVFNLDDIEEGVEGAGFDDEKALLMSQMSLEKRFGQSAVFVASTLMENGGVPPSATPENLLKEAIHVISCGYEDKSDWGMEIGWIYGSVTEDILTGFKMHARGWRSIYCMPKLPAFKGSAPINLSDRLNQVLRWALGSVEILFSRHCPIWYGYNGRLKFLERFAYVNTTIYPITSIPLLMYCTLPAVCLFTNQFIIPQISNIASIWFLSLFLSIFATGILEMRWSGVGIDEWWRNEQFWVIGGVSAHLFAVFQGILKVLAGIDTNFTVTSKASDEDGDFAELYLFKWTTLLIPPTTLLIVNLVGVVAGVSYAINSGYQSWGPLFGKLFFAFWVIVHLYPFLKGLMGRQNRTPTIVVVWSVLLASIFSLLWVRIDPFTSRVTGPDILECGINC

molecular target: T1, KOR1N, N-terminal part of KOR1 with the transmembrane domain (AA 1 to 94), MbYTH fusion (Arabidopsis thaliana); experiment: two-hybrid; split-ubiquitin membrane-based yeast two-hybrid (MbYTH) in S. cerevisiae NMY51; bait fused to Cub-TF, prey to NubG; 100 colonies of each combination spotted on selective medium with 3-AT, 30°C, three days, grown spots counted; called 'in vitro' by the paper

binding, binds:
B1
B2
B3

molecular target: T2, KOR1TMD, only the transmembrane domain of KOR1 (AA 70 to 94), MbYTH fusion (Arabidopsis thaliana); experiment: as above

binding, binds:
B1
B2
B3

molecular target: T3, KOR1C, transmembrane domain plus the C-terminal part of KOR1 (AA 70 to 621), MbYTH fusion (Arabidopsis thaliana); experiment: as above

binding, binds:
B1
B2
B3
